The test addresses FLAG-TNF (UniProt P01375). In words: co-IP; HT-29 cells treated with FLAG-TNF, FLAG-TNF/S/Z or FLAG-TNF/CHX/Z for 1 h; lysates precipitated with anti-FLAG beads to isolate complex I; Western blotting; only the target purified.

Sequences of proteins named here, by UniProt entry; tags and fusion partners are left off. A change or cut given only in a name is not applied to a line headed by its entry.
UniProt P01375: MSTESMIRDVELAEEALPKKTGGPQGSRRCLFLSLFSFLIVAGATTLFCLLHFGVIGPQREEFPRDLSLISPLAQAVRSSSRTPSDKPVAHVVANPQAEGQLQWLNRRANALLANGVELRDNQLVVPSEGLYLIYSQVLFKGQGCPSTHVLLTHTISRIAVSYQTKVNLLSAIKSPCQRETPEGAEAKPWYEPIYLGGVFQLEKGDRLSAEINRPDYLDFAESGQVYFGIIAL
UniProt B7ZBB8: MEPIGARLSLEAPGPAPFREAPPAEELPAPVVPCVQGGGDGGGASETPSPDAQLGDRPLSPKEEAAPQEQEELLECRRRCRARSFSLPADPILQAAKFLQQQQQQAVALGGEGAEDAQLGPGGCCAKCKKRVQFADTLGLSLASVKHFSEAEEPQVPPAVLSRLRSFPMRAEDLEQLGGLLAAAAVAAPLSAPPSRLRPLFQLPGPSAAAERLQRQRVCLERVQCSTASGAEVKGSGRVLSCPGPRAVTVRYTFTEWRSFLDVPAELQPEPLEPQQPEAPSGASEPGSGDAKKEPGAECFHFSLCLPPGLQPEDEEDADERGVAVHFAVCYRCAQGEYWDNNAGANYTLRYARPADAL

These are yes or no findings as the source states them, for the method shown. In cells and extracts the contact can be indirect. A result given as binding can be weak or reduced; the word gives no strength.

Turning to “PPP1R3G (protein phosphatase 1 regulatory subunit 3G), endogenous in HT-29 cells (from UniProt B7ZBB8 1-358)”, the binding entry is recorded as “binds”.

(Values after article PMC8642546.)
